Literature values, collected in US8846662B2, “Benzodiazepine and/or pharmaceutical composition comprising benzodiazepine derivatives” (Dr. Franz Koehler Chemie GmbH, priority 2008, dated 2014).
At least one structure is not confirmed: it was looked up by name or label, or the drawing left a doubt.

System: benzodiazepine receptors of the GABAergic transmitter system
Details: background statement

Question: For `O=C1Nc2ccc(Cl)cc2C(c2ccccc2)=NC1O` (stereo not shown) [Oxazepam, 9-chloro-4-hydroxy-6-phenyl-2,5-diazabicyclo[5.4.0]undeca-5,8,10,12-tetraen-3-one], which “Affinity to benzodiazepine receptors” value is on record?
Answer: moderately strong affinity
